Data as given in US20130066055A1, “NEW BINDER-DRUG CONJUGATES (ADCS) AND USE THEREOF” (Bayer Intellectual Property GmbH, priority 2011, published 2013).
Changes are numbered by the printed parent chain. Results are given in words; binding and its absence hold for the method and conditions named. Some results given as binding are weak or reduced against the parent protein; the word gives no strength.

Chains of the proteins cited; added tags and fusions are not shown. Residues count along the entry.
UniProt O95274, residues 31-326: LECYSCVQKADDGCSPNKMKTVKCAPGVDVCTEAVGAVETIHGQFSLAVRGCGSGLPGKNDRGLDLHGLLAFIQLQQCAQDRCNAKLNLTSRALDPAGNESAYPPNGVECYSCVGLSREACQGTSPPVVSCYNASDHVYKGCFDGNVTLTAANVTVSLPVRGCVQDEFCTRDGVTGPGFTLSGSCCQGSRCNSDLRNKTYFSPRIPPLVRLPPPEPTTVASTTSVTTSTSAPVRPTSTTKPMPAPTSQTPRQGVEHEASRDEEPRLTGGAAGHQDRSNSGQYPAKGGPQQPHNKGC

B1: anti-C4.4a antibody B01-8 (antibody, V domains shown)
VH: EVQLLESGGGLVQPGGSLRLSCAASGFTFSNAWMSWVRQAPGKGLEWVSYISSSGSTIYYADSVKGRFTISRDNSKNTLYLQMNSLRAEDTAVYYCAREGLWAFDYWGQGTLVTVSS
VL: QSVLTQPPSVSGAPGQRVTISCTGSSSNIGAGYVVHWYQQLPGTAPKLLIYDNNKRPSGVPDRFSGSKSGTSASLAISGLRSEDEADYYCAAFDDSLNGPVFGGGTKLTVLG
B2: anti-C4.4a antibody B01-9 (antibody, V domains shown)
VH: B1 VH with N31S, T57S, I58T, Y106K, S116T
VL: B1 VL with V10A, A13T
B3: anti-C4.4a antibody B01-10 (antibody, V domains shown)
VH: B1 VH with N31S
VL: B1 VL with F93Y, N98S
B4: anti-C4.4a antibody B01-11 (antibody, V domains shown)
VH: B1 VH with N31S, T57S, I58T, Y106K
VL: B1 VL with V10A, A13T, T23S, K55Q
B5: anti-C4.4a antibody B01-12 (antibody, V domains shown)
VH: B1 VH with N31S, T57S, I58T, Y106K
VL: B1 VL with V10A, A13T, T23S, K55Q, S96R, N98S
B6: anti-C4.4a antibody B01-2 (antibody, V domains shown)
VH: B1 VH with N31S, T57S, I58T
VL: B1 VL with Q1E, V10A, A13T, T23S, K55Q, F93W, S96R
B7: anti-C4.4a antibody B01-4 (antibody, V domains shown)
VH: B1 VH
VL: B1 VL with Q1E, F93Y, S96R
B8: anti-C4.4a antibody B01-5 (antibody, V domains shown)
VH: B1 VH
VL: B1 VL with F93Y, N98S
B9: anti-C4.4a antibody B01-6 (antibody, V domains shown)
VH: B1 VH with N31S, T57S, I58T, Y106G
VL: B1 VL with V10A, A13T, T23S, K55Q, F93Y, G99R
B10: anti-C4.4a antibody B01-7 (antibody, V domains shown)
VH: B1 VH with Y106K
VL: B1 VL with V10A, A13T, S96R

molecular target: C4.4a (UniProt O95274); assay: competitor M31-B01; method not given

Binder | binding
B1 | binds
B2 | binds
B3 | binds
B4 | binds
B5 | binds
B6 | binds
B7 | binds
B8 | binds
B9 | binds
B10 | binds
